Data as given in patent publication US20160264628 (published 2016).

Experiment: general procedure: peptide synthesis; BOP-Cl; isobutyl chloroformate; pivalic acid chloride; oxalyl chloride (activati)
Conditions: lipidation step

Micafungin
step yield (NEt3 salt, run 1): 76%
step yield (NEt3 salt, run 2): 54%
step yield (Na salt): =66%
